According to article PMC5501724, “Structural Basis for Specific Interaction of TGFβ Signaling Regulators SARA/Endofin with HD-PTP” (Structure(London, England:1993), 2017):
No constants are given. Whether binding was seen depends on the method and setting. Binding seen in cells or lysates may run through a third protein. Tags and fused reporters may be left off the sequences shown.

By UniProt entry, the sequences of proteins in these tests, tags left out. Where a name states a change or a piece, a line headed by the entry shows the natural chain unless it says otherwise.
UniProt Q9H444: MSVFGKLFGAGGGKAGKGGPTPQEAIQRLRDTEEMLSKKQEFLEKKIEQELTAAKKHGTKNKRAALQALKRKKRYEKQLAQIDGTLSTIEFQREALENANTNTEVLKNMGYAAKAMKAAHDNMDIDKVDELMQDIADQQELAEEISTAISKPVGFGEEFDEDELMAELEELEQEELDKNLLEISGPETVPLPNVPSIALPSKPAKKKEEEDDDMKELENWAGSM

Biological target: T1, His6-HD-PTP_(Bro1-CC) (1-714), bacterially expressed (human) (UniProt Q9H3S7)
T1 sequence: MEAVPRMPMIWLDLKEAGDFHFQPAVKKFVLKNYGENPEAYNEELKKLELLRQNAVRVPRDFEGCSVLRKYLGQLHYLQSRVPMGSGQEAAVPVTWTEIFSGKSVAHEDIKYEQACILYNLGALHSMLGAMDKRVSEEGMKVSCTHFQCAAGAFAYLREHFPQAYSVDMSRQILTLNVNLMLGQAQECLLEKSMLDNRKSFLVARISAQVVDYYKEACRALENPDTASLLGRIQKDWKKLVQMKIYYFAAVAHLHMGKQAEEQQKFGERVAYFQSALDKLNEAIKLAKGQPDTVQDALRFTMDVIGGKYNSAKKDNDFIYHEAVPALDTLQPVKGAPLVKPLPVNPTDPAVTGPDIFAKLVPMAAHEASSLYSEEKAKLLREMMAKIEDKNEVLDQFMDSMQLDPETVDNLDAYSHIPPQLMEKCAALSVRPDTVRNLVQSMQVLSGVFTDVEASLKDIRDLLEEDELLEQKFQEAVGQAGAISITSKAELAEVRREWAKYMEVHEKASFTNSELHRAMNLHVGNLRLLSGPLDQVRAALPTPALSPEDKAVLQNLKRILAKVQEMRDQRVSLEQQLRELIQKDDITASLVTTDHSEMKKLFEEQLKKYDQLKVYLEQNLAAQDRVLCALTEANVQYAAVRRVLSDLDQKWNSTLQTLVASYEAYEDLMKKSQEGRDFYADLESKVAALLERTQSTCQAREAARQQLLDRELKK
Experiment: co-IP; bacterially expressed GST-CHMP4B, full length or truncated (50 μg/ml), and His6-HD-PTP Bro1-CC (5 μg) in 200 μl IP2 buffer with 250 mM NaCl, 2 h at 4°C; immunoprecipitation with anti-His; both purified

How did the binding turn out when “GST-CHMP4BΔCT, bacterially expressed (from UniProt Q9H444) (domain or fragment)” was run?
The binding was “no binding”.
